In patent publication US20220098251A1, “PEPTIDE TAGS FOR LIGAND INDUCED DEGRADATION OF FUSION PROTEINS” (DANA-FARBER CANCER INSTITUTE, INC., priority 2018, published 2022):

Tested on: DDB1ΔB-CRBN
Experiment: TR-FRET of SALL4 degron binding to CRBN
Design: species or system human
Conditions: SALL4 degron tags, biochemical assays
Procedure: Compounds in binding assays were dispensed into a 384-well microplate (Corning, 4514) using the D300e Digital Dispenser (HP) normalized to 1% DMSO and containing 100 nM biotinylated Strep-Avi-SALL4 (WT or mutant, see, FIG. 3A-FIG. 3K), 1 μM His6-DDB1ΔB-His6-CRBNBODIPY-Spycatcher and 4 nM terbium-coupled streptavidin (Invitrogen) in a buffer containing 50 mM Tris pH 7.5, 100 mM NaCl, 1 mM TCEP, 0.1% Pluronic F-68 solution (Sigma). Before TR-FRET measurements were conducted, the reactions were incubated for 15 minutes at room temperature (RT). After excitation of terbium fluorescence at 337 nm, emission at 490 nm (terbium) and 520 nm (boron-dipyrromethene (BODIPY)) were recorded with a 70 μs delay over 600 μs to reduce background fluorescence and the reaction was followed over 30×200 second cycles of each data point using a PHERAstar® FS microplate reader (BMG Labtech). The TR-FRET signal of each data point was extracted by calculating the 520/490 nm ratios. Data from three independent measurements (n=3), each calculated as an average of 5 technical replicates per well per experiment, was plotted and the half maximal effective concentrations EC50 values calculated using variable slope equation in GraphPad Prism 7. […] The resulting data were fitted as described previously. (Petzold et al., Nature 532:127-130 (2016)).

Substance: SALL4 ZnF4: degron tag MHYRTHTGERPFQCKICGRAFSTKGNLKTHLGVHRTNTSIKTQ (SEQ ID NO: 28)
- IMiD-dependent dimerization / binding affinity to CRBN: binds with reduced affinity
